Results are given in words; binding and its absence hold for the method and conditions named. Some entries that bind do so weakly or less than the wild type.
Biological target: T1, KIF3B (insect cell construct, co-expressed) (Mus musculus) (UniProt Q61771)
T1 sequence: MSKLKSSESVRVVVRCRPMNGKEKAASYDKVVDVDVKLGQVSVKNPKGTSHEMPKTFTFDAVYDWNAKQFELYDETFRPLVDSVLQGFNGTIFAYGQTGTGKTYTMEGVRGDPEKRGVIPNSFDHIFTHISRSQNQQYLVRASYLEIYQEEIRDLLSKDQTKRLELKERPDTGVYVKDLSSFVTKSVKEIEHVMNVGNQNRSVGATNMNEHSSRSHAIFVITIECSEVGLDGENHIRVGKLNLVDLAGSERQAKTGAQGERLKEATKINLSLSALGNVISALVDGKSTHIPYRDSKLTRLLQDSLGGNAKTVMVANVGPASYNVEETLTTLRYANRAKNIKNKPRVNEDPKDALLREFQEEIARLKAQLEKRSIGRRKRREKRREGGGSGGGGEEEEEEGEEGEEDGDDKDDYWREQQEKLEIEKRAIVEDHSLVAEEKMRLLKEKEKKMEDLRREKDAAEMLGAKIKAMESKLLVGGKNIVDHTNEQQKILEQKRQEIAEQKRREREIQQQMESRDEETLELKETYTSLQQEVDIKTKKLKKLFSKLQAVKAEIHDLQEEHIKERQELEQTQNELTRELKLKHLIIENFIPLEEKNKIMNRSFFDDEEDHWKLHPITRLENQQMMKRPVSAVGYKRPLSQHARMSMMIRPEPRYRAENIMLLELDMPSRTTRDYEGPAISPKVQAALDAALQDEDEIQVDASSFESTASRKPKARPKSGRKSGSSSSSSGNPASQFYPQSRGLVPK
Experiment: affinity co-purification

Chains of the proteins cited; added tags and fusions are not shown.
UniProt P28741: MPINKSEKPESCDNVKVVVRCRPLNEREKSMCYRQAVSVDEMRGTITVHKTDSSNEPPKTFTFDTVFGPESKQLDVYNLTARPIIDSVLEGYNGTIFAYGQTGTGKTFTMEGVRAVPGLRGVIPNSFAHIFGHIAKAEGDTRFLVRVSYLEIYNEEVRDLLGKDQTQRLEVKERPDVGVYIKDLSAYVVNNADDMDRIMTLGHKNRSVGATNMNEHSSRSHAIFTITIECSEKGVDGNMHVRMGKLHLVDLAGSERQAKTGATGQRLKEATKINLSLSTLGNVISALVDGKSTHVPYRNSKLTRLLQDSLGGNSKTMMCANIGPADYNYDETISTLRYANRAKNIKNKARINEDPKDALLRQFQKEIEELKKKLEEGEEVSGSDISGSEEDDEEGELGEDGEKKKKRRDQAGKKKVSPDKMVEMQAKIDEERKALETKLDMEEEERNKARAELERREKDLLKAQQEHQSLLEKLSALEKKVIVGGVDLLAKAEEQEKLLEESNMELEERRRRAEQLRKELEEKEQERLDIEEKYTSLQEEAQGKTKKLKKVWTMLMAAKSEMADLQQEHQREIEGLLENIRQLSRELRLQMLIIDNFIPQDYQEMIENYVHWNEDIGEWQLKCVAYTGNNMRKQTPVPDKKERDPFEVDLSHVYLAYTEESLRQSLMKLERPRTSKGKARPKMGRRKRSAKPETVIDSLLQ

binding: binds
Substance: KIF3A (insect cell construct, co-expressed) (from UniProt P28741 1-701)

Source: article doi:10.1101/701250
